Paper PMC7433898
Results are given in words; binding and its absence hold for the method and conditions named. Binding seen in cells or lysates may run through a third protein. Some results given as binding are weak or reduced against the parent protein; the word gives no strength. For part of these data: Sequences can lack the tags named with a protein.

Amino acid sequences for entries named in this document (tags omitted).
UniProt Q16666: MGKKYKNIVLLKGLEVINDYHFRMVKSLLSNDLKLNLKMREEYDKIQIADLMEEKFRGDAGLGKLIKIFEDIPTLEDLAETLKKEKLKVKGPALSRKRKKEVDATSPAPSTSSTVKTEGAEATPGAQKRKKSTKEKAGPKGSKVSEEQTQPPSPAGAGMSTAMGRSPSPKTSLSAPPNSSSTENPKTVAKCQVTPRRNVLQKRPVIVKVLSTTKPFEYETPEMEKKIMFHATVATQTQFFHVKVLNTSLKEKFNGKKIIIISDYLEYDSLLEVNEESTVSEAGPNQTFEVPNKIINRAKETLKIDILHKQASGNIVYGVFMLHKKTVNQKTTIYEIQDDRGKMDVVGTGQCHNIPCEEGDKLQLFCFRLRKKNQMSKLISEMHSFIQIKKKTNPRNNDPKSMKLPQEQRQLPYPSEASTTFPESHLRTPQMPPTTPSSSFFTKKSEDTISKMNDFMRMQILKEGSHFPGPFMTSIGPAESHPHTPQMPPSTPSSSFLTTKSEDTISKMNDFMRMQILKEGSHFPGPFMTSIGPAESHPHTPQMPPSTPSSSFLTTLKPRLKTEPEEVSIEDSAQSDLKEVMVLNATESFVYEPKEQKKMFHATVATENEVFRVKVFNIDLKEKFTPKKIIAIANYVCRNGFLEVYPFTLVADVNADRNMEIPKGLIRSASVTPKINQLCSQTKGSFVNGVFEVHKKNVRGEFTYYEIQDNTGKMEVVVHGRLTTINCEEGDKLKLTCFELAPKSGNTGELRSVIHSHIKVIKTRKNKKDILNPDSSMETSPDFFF
UniProt P08047: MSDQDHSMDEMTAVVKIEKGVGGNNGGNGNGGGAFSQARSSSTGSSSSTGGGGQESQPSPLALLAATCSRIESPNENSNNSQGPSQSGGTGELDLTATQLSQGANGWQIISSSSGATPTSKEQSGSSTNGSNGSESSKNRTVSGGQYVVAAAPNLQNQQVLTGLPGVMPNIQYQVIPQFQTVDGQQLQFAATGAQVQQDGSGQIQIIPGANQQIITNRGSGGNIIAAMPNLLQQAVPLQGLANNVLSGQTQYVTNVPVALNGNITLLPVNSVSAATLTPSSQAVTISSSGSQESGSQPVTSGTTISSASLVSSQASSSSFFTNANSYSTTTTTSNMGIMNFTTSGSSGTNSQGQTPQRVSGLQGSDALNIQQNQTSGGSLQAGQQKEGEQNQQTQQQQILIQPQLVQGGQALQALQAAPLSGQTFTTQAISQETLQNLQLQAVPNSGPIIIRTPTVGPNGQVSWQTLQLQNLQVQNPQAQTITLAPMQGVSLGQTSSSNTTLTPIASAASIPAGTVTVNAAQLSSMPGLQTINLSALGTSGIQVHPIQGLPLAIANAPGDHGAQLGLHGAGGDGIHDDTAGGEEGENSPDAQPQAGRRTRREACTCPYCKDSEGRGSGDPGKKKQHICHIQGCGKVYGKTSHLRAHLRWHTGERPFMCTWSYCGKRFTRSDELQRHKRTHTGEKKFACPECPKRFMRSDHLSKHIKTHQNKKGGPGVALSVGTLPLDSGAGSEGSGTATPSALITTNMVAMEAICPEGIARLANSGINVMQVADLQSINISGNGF

Assays:
[1] = molecular target: T1, HA-tagged pyrin and HIN domain family member 1 (PYHIN1) (human) (UniProt Q6K0P9); assay: co-IP; HEK293T transfected with C-terminally HA-tagged PYHIN proteins; lysates untreated or treated with benzonase (750 U/ml, 1 mM MgCl2, 2 h, room temperature); anti-HA antibody and protein A/G magnetic beads; washes with 300 mM NaCl, 0.5% NP40; endogenous Sp1 detected by blot
T1 sequence: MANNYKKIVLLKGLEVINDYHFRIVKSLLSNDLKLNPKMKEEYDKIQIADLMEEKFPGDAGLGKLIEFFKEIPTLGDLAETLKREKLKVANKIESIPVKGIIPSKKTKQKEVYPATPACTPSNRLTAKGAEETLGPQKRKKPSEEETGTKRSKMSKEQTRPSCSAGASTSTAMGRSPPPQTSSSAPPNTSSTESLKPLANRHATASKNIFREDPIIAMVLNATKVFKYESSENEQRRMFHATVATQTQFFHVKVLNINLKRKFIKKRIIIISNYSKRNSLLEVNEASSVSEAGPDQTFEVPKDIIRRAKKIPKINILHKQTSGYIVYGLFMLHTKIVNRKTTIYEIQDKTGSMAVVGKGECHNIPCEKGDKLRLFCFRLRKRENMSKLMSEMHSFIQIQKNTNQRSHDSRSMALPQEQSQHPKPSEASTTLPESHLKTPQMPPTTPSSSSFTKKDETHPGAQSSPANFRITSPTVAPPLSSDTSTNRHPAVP

[2] = molecular target: HA-tagged IFI16 (human) (UniProt Q16666); assay: as above
[3] = molecular target: T2, HA-tagged myeloid cell nuclear differentiation antigen (MNDA) (human) (UniProt P41218); assay: as above
T2 sequence: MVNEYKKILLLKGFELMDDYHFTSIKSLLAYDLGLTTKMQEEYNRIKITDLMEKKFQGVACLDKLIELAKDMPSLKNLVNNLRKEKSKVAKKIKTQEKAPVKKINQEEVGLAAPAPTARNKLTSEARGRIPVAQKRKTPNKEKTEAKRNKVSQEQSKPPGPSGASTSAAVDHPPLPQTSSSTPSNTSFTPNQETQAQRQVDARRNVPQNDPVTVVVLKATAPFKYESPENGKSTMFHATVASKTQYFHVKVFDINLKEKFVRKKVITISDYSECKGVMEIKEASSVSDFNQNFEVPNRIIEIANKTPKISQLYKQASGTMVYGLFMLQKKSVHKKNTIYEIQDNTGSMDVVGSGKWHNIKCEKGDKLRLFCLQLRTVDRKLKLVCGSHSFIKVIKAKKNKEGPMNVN

[4] = molecular target: T3, HA-tagged absent in melanoma 2 (AIM2) (human) (UniProt O14862); assay: as above
T3 sequence: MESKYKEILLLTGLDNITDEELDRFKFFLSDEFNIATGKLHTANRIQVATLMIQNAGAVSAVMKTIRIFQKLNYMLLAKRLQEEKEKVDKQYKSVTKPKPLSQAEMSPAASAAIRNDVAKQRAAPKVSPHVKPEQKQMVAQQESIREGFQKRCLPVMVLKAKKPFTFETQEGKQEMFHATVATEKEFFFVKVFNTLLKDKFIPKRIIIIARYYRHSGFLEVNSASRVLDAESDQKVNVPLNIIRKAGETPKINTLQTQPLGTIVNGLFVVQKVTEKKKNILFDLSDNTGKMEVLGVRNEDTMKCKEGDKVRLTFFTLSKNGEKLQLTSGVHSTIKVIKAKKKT

[5] = molecular target: transcription factor Sp1, endogenous in primary CD4+ T cells (human (endogenous in primary CD4+ T cells)) (UniProt P08047); assay: co-IP; endogenous Sp1 immunoprecipitated with rabbit anti-Sp1 (or control IgG) on magnetic beads from lysates of activated primary CD4+ T lymphocytes; Co-IP lysis buffer with 0.2% Triton-X and 0.3% NP40; 4 h at 4°C; Western blot
[6] = molecular target: transcription factor Sp1, endogenous in primary CD4+ T cells (human (endogenous in primary CD4+ T cells)) (UniProt P08047); assay: proximity ligation; in situ PLA on fixed primary human CD4+ T lymphocytes three days post-isolation; rabbit anti-Sp1 and mouse anti-IFI16 antibodies, endogenous proteins

Measured: binding

transcription factor Sp1, endogenous in HEK293T cells (from UniProt P08047 1-785)
binds: [1] | [2] | [3] | [4]

γ-interferon-inducible protein 16 (IFI16), endogenous in primary CD4+ T cells (from UniProt Q16666 1-785)
binds: [5] | [6]
